Results deposited as PubChem BioAssay AID652272 (Drosophila RNAi Screening Center, 2013)
Purpose: 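Finding fly genes that regulate Hedgehog signal transduction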 (primary screen). Cells: Drosophila clone 8 (Cl8) cells. Knock-down reagent: long dsRNA against Drosophila genes. Measured: 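Plate reader light from a firefly reporter under a ptc promoter fragment that responds to Hedgehog, with Renilla light as transfection reference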. Direction: firefly Hh reporter signal: higher = more ptc reporter light; Renilla reference signal: higher = more Renilla control light. Rule for the call: 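Called a hit if the two-replicate mean z-score lies below -2 or above +3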. Meaning of the calls: active = hit: reporter lowered or raised; inactive = not a hit.
The screen tested about 21,000 reagents; below is an unselected part of those with a known target gene and a result. Over the whole deposit, 503 (2.4%) were called active. 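Raw plate light values, not normalised; calls rest on replicate z-scores that were not deposited; hits include reporter decreases as well as increases.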 The numbers tell different reagents against one gene apart. Names joined by + are all predicted targets of the reagent. Not given: the amount of reagent, the time to read-out.

no.	gene	dsRNA no.	firefly Hh reporter signal, replicate 1	firefly Hh reporter signal, replicate 2	firefly Hh reporter signal, replicate 3	Renilla reference signal, replicate 1	Renilla reference signal, replicate 2	Call
1	Actn3 (GeneID 44964)	1	87005	80377		2203	2272	inactive
2	CG31463 (GeneID 40978)	1	62728	94434		2880	2572	inactive
3	CG4362 (GeneID 42410)	1	4.92e5	96770		28856	2416	inactive
4	CG7140 (GeneID 40445)	1	91147	84320		3277	2266	inactive
5	CG33500 (GeneID 2768957)	1	96496	2.06e5		3640	12186	active
6	CG1440 (GeneID 31776)	1	1.35e5	3.05e5		4166	11632	inactive
7	Alg10 (GeneID 326193)	1	41274	40072	53605	4604	3981	inactive
8	Kif3C (GeneID 43820)	1	84502	1.55e5		2322	6921	inactive
9	Kif3C (GeneID 43820)	2	1.02e5	1.90e5		3776	7811	inactive
10	CG11630 (GeneID 35429)	1	83257	61692		2224	6166	inactive
11	bcd (GeneID 40830)	1	1.36e5	90823		5675	3851	inactive
12	CG14932 (GeneID 34589)	1	1.27e5	67172		3067	4453	inactive
13	CG32284 (GeneID 317956)	1	1.18e5	2.79e5		3920	11232	inactive
14	janA (GeneID 43569)	1	1.08e5	1.20e5		3539	3666	inactive
15	Loxl1 (GeneID 43712)	1	70988	3.21e5		1147	10982	inactive
16	CG15873 (GeneID 37898)	1	72353	78282		1296	6859	inactive
17	Wnt5 (GeneID 32838)	1	68658	2.21e5		2361	8720	inactive
18	Pus10 (GeneID 33178)	1	1.03e5	63104		4117	2436	inactive
19	CG42369 (GeneID 33894)	1	80765	47637		1272	4988	inactive
20	ase (GeneID 30985)	1	72362	1.72e5		1765	6307	inactive
21	mahe (GeneID 31707)	1	1.01e5	85138		1780	1626	inactive
22	l(3)87Df (GeneID 49762)	1	1.27e5	1.29e5		4216	3329	inactive
23	su(Hw) (GeneID 41740)	1	1.14e5	60416		4736	2662	inactive
24	CG10283 (GeneID 35102)	1	65216	68625		2684	2616	inactive
25	tctn + B9d2	1	1.22e5	53520		3082	4688	inactive
26	pre-mod(mdg4)-W + pre-mod(mdg4)-Y + mod(mdg4) + 3 more	1	5.03e5	2.23e5		20534	5686	inactive
27	alpha-Catr (GeneID 49713)	1	97603	46576		2361	4100	inactive
28	snoRNA:Me28S-C3420b + RpS11	1	1.08e5	52042		2962	4843	inactive
29	Rrp40 (GeneID 319033)	1	6.28e5	2.96e5		35521	12534	inactive
30	RpL38 (GeneID 3355144)	1	32194	14577		2514	2480	active
31	wdn (GeneID 43398)	1	94179	1.02e5		1528	1494	inactive
32	PsGEF (GeneID 31224)	1	39178	2.00e5		871	7676	inactive
33	PsGEF (GeneID 31224)	2	55561	2.09e5		1754	9434	inactive
34	PsGEF (GeneID 31224)	3	43185	1.08e5		860	4827	inactive
35	dpr6 (GeneID 50296)	1	1.08e5	1.95e5		2876	7097	inactive
36	dpr6 (GeneID 50296)	2	38372	53617	55494	4988	3712	inactive
37	dpr6 (GeneID 50296)	3	6.42e5	85580		3668	3668	inactive
38	TotZ (GeneID 117459)	1	36706	2.26e5		7424	5368	inactive
39	SIFa (GeneID 3346202)	1	85339	1.03e5		1892	6516	inactive
40	CG12951 (GeneID 41110)	1	89289	1.00e5		2009	2848	inactive
41	ab (GeneID 34560)	1	68688	3.01e5		4371	19127	active
42	ab (GeneID 34560)	2	65164	23605		1762	1890	inactive
43	CG8520 (GeneID 36357)	1	84200	58473		3383	2418	inactive
44	Cyp318a1 (GeneID 32172)	1	94784	3.05e5		2656	10752	inactive
45	CG13868 (GeneID 37302)	1	1.07e5	38592		4449	1702	inactive
46	Lasp (GeneID 39864)	1	72201			1600	3497	inactive
47	Non2 (GeneID 38341)	1	1.36e5	85351		5762	2576	inactive
48	CG2004 (GeneID 31809)	1	74873	2.91e5		2800	11330	inactive
49	tfc (GeneID 38141)	1	1.09e5	2.48e5		3380	9361	inactive
50	tfc (GeneID 38141)	2	1.01e5	1.94e5		3200	8002	inactive
51	tfc (GeneID 38141)	3	1.08e5	1.01e5		5664	4343	inactive
52	TTLL4A (GeneID 47729)	1	1.12e5	1.35e5		4354	5251	inactive
53	loh (GeneID 34435)	1	4.96e5	1.93e5		26775	8385	inactive
54	loh (GeneID 34435)	2	92117	73744		2548	6253	inactive
55	CG5697 (GeneID 42483)	1	5.65e5	81376		26336	2640	inactive
56	Atg7 (GeneID 37141)	1	1.37e5	1.64e5		3746	7158	inactive
57	Atg7 (GeneID 37141)	2	1.04e5	54505		2880	3799	inactive

Records listed so far with an active call:
gene	dsRNA no.	firefly Hh reporter signal, replicate 1	firefly Hh reporter signal, replicate 2	firefly Hh reporter signal, replicate 3	Renilla reference signal, replicate 1	Renilla reference signal, replicate 2	Call
CG33500 (GeneID 2768957)	1	96496	2.06e5		3640	12186	active
RpL38 (GeneID 3355144)	1	32194	14577		2514	2480	active
ab (GeneID 34560)	1	68688	3.01e5		4371	19127	active
